Reference: PubChem BioAssay AID652243 (Drosophila RNAi Screening Center, 2013)
Purpose: 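Fly regulators of androgen-dependent reporter output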 (primary screen). Cell system: Drosophila S2R+ cells. Knock-down reagent: long dsRNA against Drosophila genes. Timing: 72 h (48 h, then 24 h hormone). Challenge: synthetic androgen R1881 at 10 nM for 24 h. Measurement: 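Per-well raw luminescence of the androgen-driven firefly reporter and of the Renilla control, two replicates each, without normalisation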. Scale: firefly reporter light: higher = more light from androgen-responsive reporter; Renilla control light: higher = more constitutive control signal (cell number, transfection). Rule for the call: 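Hit when the log firefly-to-Renilla ratio dropped or increased by a fixed fold versus the mean of GFP or LacZ controls across duplicate plates; lowering cut given as 1.5 and as 3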. Meaning of the calls: active = hit: reporter lowered or raised; inactive = no hit.
In all, the deposit lists about 24,000 reagents; below is a random part of those with a known target gene and a result. In the full data, 246 (1%) were called active. 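Plates not normalised; calls are printed but the firefly/Renilla ratio behind them is not deposited; fold cut for lowering reported inconsistently.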 The raw values are shown without normalisation. Entries without a mark were called inactive. Not stated in the record: the amount of reagent.

gene	amplicon	firefly reporter light, replicate 1	firefly reporter light, replicate 2	Renilla control light, replicate 1	Renilla control light, replicate 2
Nlg2	DRSC00957	8.58e5	3.60e5	1.21e5	49441
Nlg2	DRSC03578	1.38e5	2.81e5	2.52e6	2.34e6
Nlg2	DRSC25217	3.13e5	3.58e5	4.44e5	5.24e5
eEF1beta	DRSC07419	3.45e5	4.40e5	5.52e5	4.07e5
eEF1beta	DRSC24367	5.64e5	4.82e5	7.72e5	6.44e5
Sld5	DRSC14892	1.03e5	1.25e5	1.45e6	1.97e6
CG43088	DRSC21407	5.26e5	6.55e5	2.36e6	2.13e6
Scsalpha2	DRSC16003	1.15e5	86209	8.53e5	7.85e5
PH4alphaNE1	DRSC16546	89243	84133	6.77e5	4.82e5
PH4alphaNE1	DRSC26942	4.93e5	3.27e5	7.98e5	5.43e5
H	DRSC16692	4.23e5	3.97e5	3.16e6	3.56e6
H	DRSC26618	2.45e5	2.36e5	6.37e5	7.47e5
Mur2B	DRSC18545	3.31e5	3.16e5	4.70e6	3.76e6
Mur2B	DRSC18546	2.71e5	3.01e5	4.15e6	3.93e6
noi	DRSC12383	28821	18959	2.49e5	2.17e5
noi	DRSC26152	3.55e5	2.28e5	7.99e5	6.87e5

2 of these entries, reformatted.
gene,amplicon,"firefly reporter light, replicate 1","firefly reporter light, replicate 2","Renilla control light, replicate 1","Renilla control light, replicate 2"
Nlg2,DRSC25217,3.13e5,3.58e5,4.44e5,5.24e5
eEF1beta,DRSC07419,3.45e5,4.40e5,5.52e5,4.07e5

Additional records follow.
gene	amplicon	firefly reporter light, replicate 1	firefly reporter light, replicate 2	Renilla control light, replicate 1	Renilla control light, replicate 2
Polr3G	DRSC21511	9.15e5	6.45e5	1.18e6	1.04e6
CG9222	DRSC03158	1.59e5	1.19e5	1.47e6	1.05e6
CG13723	DRSC10052	3.17e5	3.04e5	2.99e6	2.76e6
CG32651	DRSC18941	1.23e6	9.95e5	1.64e6	1.01e6
dob	DRSC19948	1.62e5	92372	8.43e5	8.18e5
Dcps	DRSC12299	50353	42439	4.33e5	4.59e5
dar1	DRSC08233	1.85e5	2.28e5	2.44e6	2.87e6
CG31693	DRSC03674	3.60e5	5.88e5	3.61e5	4.98e5
Cdc37	DRSC08648	55573	57801	6.34e5	1.06e6
Cdc37	DRSC27723	2.48e5	1.98e5	3.62e5	6.90e5
CG18557	DRSC38932	7.71e5	6.24e5	1.98e6	1.28e6
Not3	DRSC04908	7.24e5	7.04e5	1.31e6	1.65e6
Not3	DRSC27324	3.83e5	2.68e5	6.09e5	5.86e5
CG7094	DRSC03005	1.21e5	1.24e5	1.01e6	1.08e6
CG7094	DRSC29956	3.54e5	3.87e5	1.02e6	1.18e6
Obp83ef	DRSC12268	1.05e5	98617	2.02e6	1.79e6
Obp83ef	DRSC30027	4.91e5	3.26e5	1.16e6	7.03e5
js	DRSC15004	1.08e5	1.85e5	1.53e6	2.25e6
hng3	DRSC08367	81822	94603	1.52e6	1.64e6
hng3	DRSC29262	9.79e5	6.69e5	1.94e6	1.77e6
Pss	DRSC11757	2.66e5	2.03e5	2.18e6	2.82e6
kipf	DRSC15446	4.27e5	3.62e5	2.17e6	1.89e6
kipf	DRSC22871	7.84e5	9.82e5	2.93e5	2.98e5
kipf	DRSC29690	1.01e6	7.80e5	2.42e6	1.78e6
